The target in the test is T1, Toll-like receptor 9 (mouse (endogenous in peritoneal B cells)) (UniProt Q9EQU3).
T1 sequence: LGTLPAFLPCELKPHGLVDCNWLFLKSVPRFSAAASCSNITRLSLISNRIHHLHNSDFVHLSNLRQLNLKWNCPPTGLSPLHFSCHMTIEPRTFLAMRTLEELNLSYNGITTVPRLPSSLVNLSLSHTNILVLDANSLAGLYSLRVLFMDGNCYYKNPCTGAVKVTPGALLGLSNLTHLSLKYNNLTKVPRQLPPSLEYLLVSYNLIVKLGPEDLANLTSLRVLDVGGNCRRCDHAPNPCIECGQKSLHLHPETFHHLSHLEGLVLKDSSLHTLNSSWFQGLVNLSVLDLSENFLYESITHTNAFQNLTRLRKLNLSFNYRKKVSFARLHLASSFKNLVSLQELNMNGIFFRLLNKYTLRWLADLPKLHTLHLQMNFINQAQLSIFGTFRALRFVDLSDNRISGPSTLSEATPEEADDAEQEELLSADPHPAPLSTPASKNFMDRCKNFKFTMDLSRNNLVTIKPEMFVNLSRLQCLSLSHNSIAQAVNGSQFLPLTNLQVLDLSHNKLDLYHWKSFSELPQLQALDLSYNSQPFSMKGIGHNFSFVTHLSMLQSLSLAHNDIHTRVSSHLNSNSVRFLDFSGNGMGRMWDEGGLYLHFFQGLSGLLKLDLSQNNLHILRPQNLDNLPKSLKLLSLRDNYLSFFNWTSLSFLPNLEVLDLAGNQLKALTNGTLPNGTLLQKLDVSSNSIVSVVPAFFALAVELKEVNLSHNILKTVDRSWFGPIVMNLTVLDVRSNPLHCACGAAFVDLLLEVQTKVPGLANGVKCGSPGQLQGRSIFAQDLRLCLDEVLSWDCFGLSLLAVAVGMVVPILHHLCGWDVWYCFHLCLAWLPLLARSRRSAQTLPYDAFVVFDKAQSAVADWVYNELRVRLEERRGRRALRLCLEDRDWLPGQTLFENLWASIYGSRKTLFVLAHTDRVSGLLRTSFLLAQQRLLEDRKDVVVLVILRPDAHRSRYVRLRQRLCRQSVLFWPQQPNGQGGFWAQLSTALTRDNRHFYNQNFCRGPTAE
Description: proximity ligation; Duolink In Situ Red Starter Kit Mouse/Rabbit; peritoneal B cells on poly-L-lysine coated coverslips, unstimulated or stimulated with CpG (10 min, 2 h), fixed and permeabilised; primary antibodies anti-TLR9, anti-αv and anti-LC3; positive foci per cell counted.

Drawing on article PMC4792966, this text covers binding for 1 substance.

No constants are given. Whether binding was seen depends on the method and setting. In cells and extracts the contact can be indirect. Binding calls can cover weak binding; strength is not graded here.

“integrin αv (mouse (endogenous in peritoneal B cells)) (receptor)”: the binding entry is listed as “binds”.
